Reference: PMC3422239
Numbering of substitutions follows the chain as printed. Results are given in words; binding and its absence hold for the method and conditions named. A result given as binding can be weak or reduced; the word gives no strength. Tags and fused reporters may be left off the sequences shown.

Assays:
GFP-IRS2-S556A (mouse) = target: T1, GFP-IRS2-S556A (mouse) (UniProt P81122); assay: far-Western, overlay or dot blot; GFP-tagged IRS-2 pulled down with GFP-Trap from HEK293 or Flp-In HEK293 lysates, SDS-PAGE, nitrocellulose; membrane incubated overnight at 4°C with 14-3-3ζ-HRP, ECL; cells serum starved, IGF-1, or PI-103, wortmannin or Akti-1/2 before IGF-1; both purified
T1 sequence: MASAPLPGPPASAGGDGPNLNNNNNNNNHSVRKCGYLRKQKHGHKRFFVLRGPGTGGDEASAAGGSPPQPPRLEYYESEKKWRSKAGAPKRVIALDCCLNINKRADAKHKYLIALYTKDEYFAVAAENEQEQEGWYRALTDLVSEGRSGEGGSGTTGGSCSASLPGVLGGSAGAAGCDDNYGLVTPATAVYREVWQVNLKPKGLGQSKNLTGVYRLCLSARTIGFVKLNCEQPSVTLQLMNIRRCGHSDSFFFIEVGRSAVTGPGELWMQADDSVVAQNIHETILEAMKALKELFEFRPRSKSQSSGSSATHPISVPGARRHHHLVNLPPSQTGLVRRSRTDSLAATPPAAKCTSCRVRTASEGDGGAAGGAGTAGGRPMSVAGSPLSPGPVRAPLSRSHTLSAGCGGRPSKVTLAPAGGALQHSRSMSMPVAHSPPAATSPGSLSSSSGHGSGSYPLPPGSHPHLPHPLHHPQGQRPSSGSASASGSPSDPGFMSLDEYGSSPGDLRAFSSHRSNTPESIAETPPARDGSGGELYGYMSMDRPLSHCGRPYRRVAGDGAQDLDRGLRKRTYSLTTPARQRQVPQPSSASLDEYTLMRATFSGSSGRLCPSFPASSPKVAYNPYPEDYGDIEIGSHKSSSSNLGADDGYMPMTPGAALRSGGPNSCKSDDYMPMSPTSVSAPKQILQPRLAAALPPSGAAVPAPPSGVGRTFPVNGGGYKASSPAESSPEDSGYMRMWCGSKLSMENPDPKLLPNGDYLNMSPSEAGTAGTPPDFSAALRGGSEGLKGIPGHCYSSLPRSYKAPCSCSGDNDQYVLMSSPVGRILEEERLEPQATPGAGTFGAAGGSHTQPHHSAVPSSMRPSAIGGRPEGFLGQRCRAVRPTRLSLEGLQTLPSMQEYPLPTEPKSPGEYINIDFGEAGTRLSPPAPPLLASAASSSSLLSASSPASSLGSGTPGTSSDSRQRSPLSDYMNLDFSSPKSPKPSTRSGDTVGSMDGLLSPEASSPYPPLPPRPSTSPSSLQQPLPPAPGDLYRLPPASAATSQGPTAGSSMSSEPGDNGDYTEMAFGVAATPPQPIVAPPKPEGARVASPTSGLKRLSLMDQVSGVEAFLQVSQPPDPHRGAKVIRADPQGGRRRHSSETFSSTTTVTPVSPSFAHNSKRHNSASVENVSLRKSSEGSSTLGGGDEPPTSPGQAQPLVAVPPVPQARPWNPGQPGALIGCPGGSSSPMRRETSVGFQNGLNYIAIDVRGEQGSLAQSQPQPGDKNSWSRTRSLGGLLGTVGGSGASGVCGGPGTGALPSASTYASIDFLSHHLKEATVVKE

GFP-IRS-2-T517A (mouse) = target: T2, GFP-IRS-2-T517A (mouse) (UniProt P81122); assay: as above
T2 sequence: T1 sequence with T517A, A556S

binding (GFP-IRS2-S556A (mouse)): binds
binding (GFP-IRS-2-T517A (mouse)): binds
Substance: Recombinant human 14-3-3ζ-HRP
